One assay has as its target SAP130-HA (UniProt Q15393). Description: co-IP; lysates of transfected HEK293T cells on beads with anti-HA antibody, 4°C for 2 hours, washed with NP40 lysis buffer (20 mM Tris pH 7.5, 50 mM NaCl, 0.5 mM EDTA, 5% glycerol, 0.5% NP40); Western blot (V5 or Skp2 antibody); SAP130-HA as bait. On the technique in general: In western blotting, separated proteins are transferred to a membrane and probed.

Protein sequences, listed by entry. Tags and fused reporters are not part of them. Lines headed by an entry give the natural chain unless they say otherwise; changes in a name come on top.
UniProt Q15393: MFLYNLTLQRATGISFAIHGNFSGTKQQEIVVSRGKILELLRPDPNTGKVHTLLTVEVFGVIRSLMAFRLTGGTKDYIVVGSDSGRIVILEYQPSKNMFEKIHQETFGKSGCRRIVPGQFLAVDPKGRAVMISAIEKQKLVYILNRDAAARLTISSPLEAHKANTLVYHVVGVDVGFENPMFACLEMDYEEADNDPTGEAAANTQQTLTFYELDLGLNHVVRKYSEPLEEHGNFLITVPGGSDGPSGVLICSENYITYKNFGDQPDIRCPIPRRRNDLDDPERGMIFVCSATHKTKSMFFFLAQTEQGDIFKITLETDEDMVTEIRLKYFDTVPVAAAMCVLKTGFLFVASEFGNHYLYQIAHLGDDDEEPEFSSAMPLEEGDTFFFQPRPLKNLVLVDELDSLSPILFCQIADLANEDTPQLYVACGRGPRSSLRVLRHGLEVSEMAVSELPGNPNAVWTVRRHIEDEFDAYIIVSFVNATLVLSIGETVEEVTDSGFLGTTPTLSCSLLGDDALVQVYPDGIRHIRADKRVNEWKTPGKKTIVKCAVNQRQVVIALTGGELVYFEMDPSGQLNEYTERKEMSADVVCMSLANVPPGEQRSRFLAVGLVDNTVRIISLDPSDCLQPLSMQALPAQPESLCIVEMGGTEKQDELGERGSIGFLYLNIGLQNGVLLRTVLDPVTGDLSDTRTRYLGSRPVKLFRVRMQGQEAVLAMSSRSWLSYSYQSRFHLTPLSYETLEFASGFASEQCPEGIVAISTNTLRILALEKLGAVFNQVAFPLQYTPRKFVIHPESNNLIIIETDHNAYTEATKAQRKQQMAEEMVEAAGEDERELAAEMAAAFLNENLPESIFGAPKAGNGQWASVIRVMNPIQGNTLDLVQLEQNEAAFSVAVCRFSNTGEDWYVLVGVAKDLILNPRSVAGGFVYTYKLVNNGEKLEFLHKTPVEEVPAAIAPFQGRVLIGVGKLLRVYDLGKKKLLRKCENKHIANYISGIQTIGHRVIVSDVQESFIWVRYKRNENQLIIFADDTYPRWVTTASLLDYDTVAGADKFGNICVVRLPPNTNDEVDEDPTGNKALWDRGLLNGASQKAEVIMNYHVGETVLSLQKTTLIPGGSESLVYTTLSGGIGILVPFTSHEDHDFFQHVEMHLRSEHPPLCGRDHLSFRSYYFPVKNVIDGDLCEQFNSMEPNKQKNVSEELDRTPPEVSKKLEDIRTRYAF
UniProt Q13616: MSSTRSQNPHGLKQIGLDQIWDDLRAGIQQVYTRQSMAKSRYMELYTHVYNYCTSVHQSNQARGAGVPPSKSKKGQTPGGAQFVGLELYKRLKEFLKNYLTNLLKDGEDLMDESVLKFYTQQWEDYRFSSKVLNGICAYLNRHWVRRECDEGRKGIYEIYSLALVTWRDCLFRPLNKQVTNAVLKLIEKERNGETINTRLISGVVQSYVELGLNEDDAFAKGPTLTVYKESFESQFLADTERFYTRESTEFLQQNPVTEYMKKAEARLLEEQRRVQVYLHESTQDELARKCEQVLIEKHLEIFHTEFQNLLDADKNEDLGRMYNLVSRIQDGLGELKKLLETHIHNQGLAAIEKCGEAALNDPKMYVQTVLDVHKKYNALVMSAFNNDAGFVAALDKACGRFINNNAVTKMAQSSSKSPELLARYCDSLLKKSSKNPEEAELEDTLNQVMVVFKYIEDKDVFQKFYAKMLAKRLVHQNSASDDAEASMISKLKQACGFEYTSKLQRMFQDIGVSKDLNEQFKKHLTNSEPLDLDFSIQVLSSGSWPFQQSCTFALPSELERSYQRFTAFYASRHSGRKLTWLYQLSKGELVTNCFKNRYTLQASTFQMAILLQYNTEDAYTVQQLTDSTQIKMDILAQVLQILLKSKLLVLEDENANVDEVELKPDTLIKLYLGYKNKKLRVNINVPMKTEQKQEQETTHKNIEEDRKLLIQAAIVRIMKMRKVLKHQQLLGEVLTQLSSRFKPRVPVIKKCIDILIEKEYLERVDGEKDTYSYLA
UniProt Q13617: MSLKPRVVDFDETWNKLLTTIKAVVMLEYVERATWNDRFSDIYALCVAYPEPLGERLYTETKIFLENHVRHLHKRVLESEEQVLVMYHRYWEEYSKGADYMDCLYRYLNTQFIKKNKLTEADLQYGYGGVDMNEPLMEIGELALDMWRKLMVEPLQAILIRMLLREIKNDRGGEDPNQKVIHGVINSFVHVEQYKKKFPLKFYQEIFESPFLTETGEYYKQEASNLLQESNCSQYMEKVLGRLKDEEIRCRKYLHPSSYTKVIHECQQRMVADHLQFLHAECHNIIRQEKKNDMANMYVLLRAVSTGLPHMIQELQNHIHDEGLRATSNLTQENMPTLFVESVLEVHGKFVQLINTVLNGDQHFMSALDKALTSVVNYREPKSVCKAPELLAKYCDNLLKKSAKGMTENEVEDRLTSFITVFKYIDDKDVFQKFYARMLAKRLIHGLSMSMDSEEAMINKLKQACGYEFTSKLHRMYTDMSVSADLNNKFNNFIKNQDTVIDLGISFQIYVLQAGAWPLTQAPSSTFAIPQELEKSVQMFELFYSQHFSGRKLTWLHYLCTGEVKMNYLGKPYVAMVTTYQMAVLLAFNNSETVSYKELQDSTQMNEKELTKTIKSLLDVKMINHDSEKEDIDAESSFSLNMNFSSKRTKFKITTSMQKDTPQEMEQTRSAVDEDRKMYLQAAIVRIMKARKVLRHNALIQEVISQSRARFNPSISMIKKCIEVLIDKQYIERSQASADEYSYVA
UniProt P63208: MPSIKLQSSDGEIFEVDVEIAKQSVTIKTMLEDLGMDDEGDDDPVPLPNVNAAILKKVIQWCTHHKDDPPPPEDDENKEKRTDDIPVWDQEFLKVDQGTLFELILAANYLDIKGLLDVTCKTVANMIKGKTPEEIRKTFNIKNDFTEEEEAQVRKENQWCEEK

The target in another assay is Cul1-FLAG wild-type (UniProt Q13616). Description: co-IP; lysates of transfected HEK293T cells on anti-FLAG M2 agarose beads, 4°C for 2 hours, washed with NP40 lysis buffer (20 mM Tris pH 7.5, 50 mM NaCl, 0.5 mM EDTA, 5% glycerol, 0.5% NP40); Western blot; FLAG-tagged cullin as bait; with or without overexpressed SAP130.
For another assay, the target named is Cul1-FLAG K720R (UniProt Q13616). The assay is described as above.
For a further assay, the target named is Cul3-FLAG (UniProt Q13618). The description is as above.
A further assay deals with Cul2-FLAG (UniProt Q13617). The description is as above.

No constants are given. Whether binding was seen depends on the method and setting. In cells and extracts the contact can be indirect. Some entries that bind do so weakly or less than the wild type.

For the substance Skp1-V5 (from UniProt P63208 1-163), the binding entry in the assay with SAP130-HA is “binds weakly”.

On to “Spliceosome-associated protein 130 (SAP130) (from UniProt Q15393 1-1217)”, for which the binding entry with Cul1-FLAG wild-type and with Cul1-FLAG K720R was “binds” throughout.

As to “K472E/R473E Cul1^Nedd8 (from UniProt Q13616 1-776; Q15843 1-76) (complex)”, the binding result with SAP130-HA is “binds”.

Take SAP130-HA (from UniProt Q15393 1-1217): the binding result in the assay with Cul3-FLAG, with Cul1-FLAG wild-type and with Cul2-FLAG was “binds” throughout.

In the case of “neddylated Cul1-V5 (wild-type Cul1^Nedd8) (from UniProt Q13616 1-776; Q15843 1-76) (complex)”, in the assay with SAP130-HA, the binding entry is on record as “binds”.
